# Assay results from paper doi:10.1101/2020.07.20.212142v1 (bioRxiv, 2020).
# Experiments:
# [1] = test system: dechorionated and dewaxed Drosophila melanogaster hosts; format: in vivo; conditions: for developmental stage after incubation (in words): 20 µM peptide, within 12 hours
# [2] = test system: dechorionated Drosophila melanogaster hosts; format: in vivo; conditions: dechorionated-only hosts; 20 µM peptide overnight, room temperature
substance,measurement,setting,value
TAMRA-MRKRHASRREK,developmental stage after incubation (in words),[1],remained at the embryo stage
TAMRA-GEGEGEG,embryos transitioned to the larval state,"[1]; 20 µM peptide overnight, room temperature",70%
cyclo[Glut-MRKRHASRRE-K*]-K(5-TAMRA) (sidechain bridge or staple),transition to larval state (in words),[2],did not transition to larvae
same,developmental stage after incubation (in words),[1],progressed to the larval stage
